PubChem BioAssay AID1508597 – Cure First | 2020

Purpose: 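Knock-downs altering ovarian cancer cell survival with or without PARP inhibitor rucaparib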 (primary screen)
Cell system: human ovarian carcinoma lines grown from tumours: OCI-P5x (papillary serous) and OCI-C5x (clear cell)
Knock-down reagent: siRNA pool against human genes, 1.25 pmol siRNA per well
Timing: 72 h or 96 h, depending on the cell culture
Conditions: rucaparib 20 µM (about IC30) or vehicle, present until read-out
Read-out: 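ATP luminescence measured at 72 or 96 h according to the culture, then normalised and expressed as percent viability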
Direction: viability, normalised: higher = more viable cells remaining
Hit rule: 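Active when normalised viability falls below 80 percent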
Meaning of the calls: active = viability under 80%; inactive = viability 80% or more
The whole screen tested about 2,100 reagents; shown is a part drawn at random. 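Calls flag viability under 80% in either arm, not effects specific to rucaparib; the reference for percent is not stated.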 A number with no mark means an inactive call. Reagent sequences are not shown. The record does not give: the 100% reference.

| viability, normalised (%) | gene | rucaparib or vehicle | cell line | technical replicate |
| --- | --- | --- | --- | --- |
| 46.7 (active) | SGK3 (serum/glucocorticoid regulated kinase family member 3) | Rucaparib | OCI-C5x (clear cell) | 1 |
| 59.6 (active) | SGK3 (serum/glucocorticoid regulated kinase family member 3) | Rucaparib | OCI-C5x (clear cell) | 2 |
| 69.5 (active) | SGK3 (serum/glucocorticoid regulated kinase family member 3) | Rucaparib | OCI-C5x (clear cell) | 3 |
| 70.7 (active) | SGK3 (serum/glucocorticoid regulated kinase family member 3) | Rucaparib | OCI-P5x (serous) | 1 |
| 75.3 (active) | SGK3 (serum/glucocorticoid regulated kinase family member 3) | Rucaparib | OCI-P5x (serous) | 2 |
| 62.1 (active) | SGK3 (serum/glucocorticoid regulated kinase family member 3) | Rucaparib | OCI-P5x (serous) | 3 |
| 54.4 (active) | SGK3 (serum/glucocorticoid regulated kinase family member 3) | Vehicle | OCI-C5x (clear cell) | 1 |
| 49.2 (active) | SGK3 (serum/glucocorticoid regulated kinase family member 3) | Vehicle | OCI-C5x (clear cell) | 2 |
| 48.2 (active) | SGK3 (serum/glucocorticoid regulated kinase family member 3) | Vehicle | OCI-C5x (clear cell) | 3 |
| 67.8 (active) | SGK3 (serum/glucocorticoid regulated kinase family member 3) | Vehicle | OCI-P5x (serous) | 1 |
| 54.4 (active) | SGK3 (serum/glucocorticoid regulated kinase family member 3) | Vehicle | OCI-P5x (serous) | 2 |
| 65 (active) | SGK3 (serum/glucocorticoid regulated kinase family member 3) | Vehicle | OCI-P5x (serous) | 3 |
| 68.1 (active) | TRERF1 (transcriptional regulating factor 1) | Rucaparib | OCI-C5x (clear cell) | 1 |
| 57.7 (active) | TRERF1 (transcriptional regulating factor 1) | Rucaparib | OCI-C5x (clear cell) | 2 |
| 58.2 (active) | TRERF1 (transcriptional regulating factor 1) | Rucaparib | OCI-C5x (clear cell) | 3 |
| 73.6 (active) | TRERF1 (transcriptional regulating factor 1) | Rucaparib | OCI-P5x (serous) | 1 |
| 64.7 (active) | TRERF1 (transcriptional regulating factor 1) | Rucaparib | OCI-P5x (serous) | 2 |
| 71.5 (active) | TRERF1 (transcriptional regulating factor 1) | Rucaparib | OCI-P5x (serous) | 3 |
| 72.7 (active) | TRERF1 (transcriptional regulating factor 1) | Vehicle | OCI-C5x (clear cell) | 1 |
| 60.1 (active) | TRERF1 (transcriptional regulating factor 1) | Vehicle | OCI-C5x (clear cell) | 2 |
| 68.1 (active) | TRERF1 (transcriptional regulating factor 1) | Vehicle | OCI-C5x (clear cell) | 3 |
| 93.7 | TRERF1 (transcriptional regulating factor 1) | Vehicle | OCI-P5x (serous) | 1 |
| 85.5 | TRERF1 (transcriptional regulating factor 1) | Vehicle | OCI-P5x (serous) | 2 |
| 97.8 | TRERF1 (transcriptional regulating factor 1) | Vehicle | OCI-P5x (serous) | 3 |
| 61 (active) | SIRT4 (sirtuin 4) | Rucaparib | OCI-C5x (clear cell) | 1 |
| 36.2 (active) | SIRT4 (sirtuin 4) | Rucaparib | OCI-C5x (clear cell) | 2 |
| 37 (active) | SIRT4 (sirtuin 4) | Rucaparib | OCI-C5x (clear cell) | 3 |
| 38.8 (active) | SIRT4 (sirtuin 4) | Rucaparib | OCI-P5x (serous) | 1 |
| 54.8 (active) | SIRT4 (sirtuin 4) | Rucaparib | OCI-P5x (serous) | 2 |
| 56 (active) | SIRT4 (sirtuin 4) | Rucaparib | OCI-P5x (serous) | 3 |
| 30.6 (active) | SIRT4 (sirtuin 4) | Vehicle | OCI-C5x (clear cell) | 1 |
| 29.5 (active) | SIRT4 (sirtuin 4) | Vehicle | OCI-C5x (clear cell) | 2 |
| 40.5 (active) | SIRT4 (sirtuin 4) | Vehicle | OCI-C5x (clear cell) | 3 |
| 43.5 (active) | SIRT4 (sirtuin 4) | Vehicle | OCI-P5x (serous) | 1 |
| 61.9 (active) | SIRT4 (sirtuin 4) | Vehicle | OCI-P5x (serous) | 2 |
| 64.1 (active) | SIRT4 (sirtuin 4) | Vehicle | OCI-P5x (serous) | 3 |
| 45.3 (active) | SPO11 (SPO11 initiator of meiotic double strand breaks) | Rucaparib | OCI-C5x (clear cell) | 1 |
| 69.1 (active) | SPO11 (SPO11 initiator of meiotic double strand breaks) | Rucaparib | OCI-C5x (clear cell) | 2 |
| 58.6 (active) | SPO11 (SPO11 initiator of meiotic double strand breaks) | Rucaparib | OCI-C5x (clear cell) | 3 |
| 66.3 (active) | SPO11 (SPO11 initiator of meiotic double strand breaks) | Rucaparib | OCI-P5x (serous) | 1 |
| 69.4 (active) | SPO11 (SPO11 initiator of meiotic double strand breaks) | Rucaparib | OCI-P5x (serous) | 2 |
| 63.7 (active) | SPO11 (SPO11 initiator of meiotic double strand breaks) | Rucaparib | OCI-P5x (serous) | 3 |
| 46.8 (active) | SPO11 (SPO11 initiator of meiotic double strand breaks) | Vehicle | OCI-C5x (clear cell) | 1 |
| 67.6 (active) | SPO11 (SPO11 initiator of meiotic double strand breaks) | Vehicle | OCI-C5x (clear cell) | 2 |
| 51.1 (active) | SPO11 (SPO11 initiator of meiotic double strand breaks) | Vehicle | OCI-C5x (clear cell) | 3 |
| 80.7 | SPO11 (SPO11 initiator of meiotic double strand breaks) | Vehicle | OCI-P5x (serous) | 1 |
| 59.1 (active) | SPO11 (SPO11 initiator of meiotic double strand breaks) | Vehicle | OCI-P5x (serous) | 2 |
| 69.2 (active) | SPO11 (SPO11 initiator of meiotic double strand breaks) | Vehicle | OCI-P5x (serous) | 3 |
| 34.9 (active) | ITK (IL2 inducible T cell kinase) | Rucaparib | OCI-C5x (clear cell) | 1 |
| 52.6 (active) | ITK (IL2 inducible T cell kinase) | Rucaparib | OCI-C5x (clear cell) | 2 |
| 41.6 (active) | ITK (IL2 inducible T cell kinase) | Rucaparib | OCI-C5x (clear cell) | 3 |
| 69.4 (active) | ITK (IL2 inducible T cell kinase) | Rucaparib | OCI-P5x (serous) | 1 |
| 85.2 | ITK (IL2 inducible T cell kinase) | Rucaparib | OCI-P5x (serous) | 2 |
| 72.2 (active) | ITK (IL2 inducible T cell kinase) | Rucaparib | OCI-P5x (serous) | 3 |
| 67.4 (active) | ITK (IL2 inducible T cell kinase) | Vehicle | OCI-C5x (clear cell) | 1 |
| 54.8 (active) | ITK (IL2 inducible T cell kinase) | Vehicle | OCI-C5x (clear cell) | 2 |
| 51.4 (active) | ITK (IL2 inducible T cell kinase) | Vehicle | OCI-C5x (clear cell) | 3 |
| 103 | ITK (IL2 inducible T cell kinase) | Vehicle | OCI-P5x (serous) | 1 |
| 87.8 | ITK (IL2 inducible T cell kinase) | Vehicle | OCI-P5x (serous) | 2 |
| 66.6 (active) | ITK (IL2 inducible T cell kinase) | Vehicle | OCI-P5x (serous) | 3 |
